Substitutions are numbered along the chain they refer to. No constants are given. Whether binding was seen depends on the method and setting. In cells and extracts the contact can be indirect. Some results given as binding are weak or reduced against the parent protein; the word gives no strength. Where a sequence is shown, tags or fusion partners need not be part of it.
Key:
Assay in all cases: co-IP; anti-FLAG agarose IP of PP5-FLAG (WT or mutants) from lysate of transfected HEK293 cells, 2 h at 4 °C; washes in 20 mM Tris-HCl pH 7.4, 100 mM NaCl, 1 mM MgCl2, 0.1% NP40; endogenous partners by immunoblot; some panels with CK1δ-myc co-expressed or 2 µM IC261 for 16 h
[1] = target: T1, PP5-FLAG-T362E, phosphomimetic mutant (UniProt P53041)
T1 sequence: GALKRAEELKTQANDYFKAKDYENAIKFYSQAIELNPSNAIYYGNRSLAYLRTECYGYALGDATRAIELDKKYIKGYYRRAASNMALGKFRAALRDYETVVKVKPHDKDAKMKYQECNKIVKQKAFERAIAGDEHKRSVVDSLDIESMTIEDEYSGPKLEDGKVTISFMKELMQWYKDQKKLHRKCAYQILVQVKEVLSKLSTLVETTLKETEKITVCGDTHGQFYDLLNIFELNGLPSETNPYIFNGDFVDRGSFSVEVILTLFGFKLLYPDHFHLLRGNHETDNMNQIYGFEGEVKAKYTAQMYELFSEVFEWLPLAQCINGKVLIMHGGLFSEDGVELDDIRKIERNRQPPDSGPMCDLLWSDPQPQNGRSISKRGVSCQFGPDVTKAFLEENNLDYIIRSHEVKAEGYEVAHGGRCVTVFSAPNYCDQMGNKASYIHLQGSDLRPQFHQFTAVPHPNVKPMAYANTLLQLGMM

By UniProt entry, the sequences of proteins in these tests, tags left out.
UniProt P04150: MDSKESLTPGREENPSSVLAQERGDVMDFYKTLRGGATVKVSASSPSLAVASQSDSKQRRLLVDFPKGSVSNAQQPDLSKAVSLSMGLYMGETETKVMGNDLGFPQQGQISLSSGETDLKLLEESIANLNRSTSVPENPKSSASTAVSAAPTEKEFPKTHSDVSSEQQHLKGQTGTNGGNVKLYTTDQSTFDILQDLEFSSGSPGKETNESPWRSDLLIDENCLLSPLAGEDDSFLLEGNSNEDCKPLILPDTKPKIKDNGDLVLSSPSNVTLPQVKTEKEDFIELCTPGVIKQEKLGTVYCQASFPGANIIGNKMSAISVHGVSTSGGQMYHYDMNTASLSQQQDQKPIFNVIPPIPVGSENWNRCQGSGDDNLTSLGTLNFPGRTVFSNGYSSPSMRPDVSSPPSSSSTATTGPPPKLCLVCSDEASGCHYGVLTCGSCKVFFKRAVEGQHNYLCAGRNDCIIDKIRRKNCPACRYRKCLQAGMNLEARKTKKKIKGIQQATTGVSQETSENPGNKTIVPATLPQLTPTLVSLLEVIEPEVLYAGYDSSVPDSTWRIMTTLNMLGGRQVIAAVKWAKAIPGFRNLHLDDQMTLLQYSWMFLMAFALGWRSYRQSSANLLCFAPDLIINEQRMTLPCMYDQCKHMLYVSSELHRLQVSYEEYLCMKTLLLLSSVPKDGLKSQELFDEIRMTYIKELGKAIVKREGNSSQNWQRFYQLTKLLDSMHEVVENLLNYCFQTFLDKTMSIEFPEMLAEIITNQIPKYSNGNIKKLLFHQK

[2] = target: T2, PP5-FLAG-K97E/R101E, TPR domain mutant (UniProt P53041)
T2 sequence: T1 sequence with K75E, R79E, E340T

[3] = target: T3, PP5-FLAG-K430R, non-SUMOylatable mutant (UniProt P53041)
T3 sequence: T1 sequence with E340T, K408R

PP5-FLAG-K430A = target: T4, PP5-FLAG-K430A (UniProt P53041)
T4 sequence: T1 sequence with E340T, K408A

- binding [1]: binds
- binding [2]: no binding
- binding [3]: binds
- binding (PP5-FLAG-K430A): binds
Substance: glucocorticoid receptor (GR), endogenous (from UniProt P04150 1-777)
